# Source: the supplement of paper PMC4604168 (melanoma cell lines)
# Some of the results follow. Repeats are few or missing, and single values can be far off.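 Imaging used 1,536-well plates; nuclei positive for cleaved PARP by antibody were divided by total DNA-stained nuclei to yield the apoptosis fraction. Doses for screening kept most cells viable, and cell lines differ markedly in resting and induced cleaved-PARP levels.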
# Key:
# Assay in all cases: cleaved PARP positive nuclei fraction relative to DMSO control; melanoma cells; higher = more apoptosis
# Conditions in all cases: library dose: low library concentration; 72 h
# MZ2-MEL = test system: MZ2-MEL
# MeWo = test system: MeWo
# RPMI7951 = test system: RPMI7951
# RVH-421 = test system: RVH-421
# SkMel28 = test system: SkMel28
# SkMel2 = test system: SkMel2
# SkMel30 = test system: SkMel30
# SkMel5 = test system: SkMel5
# UACC257 = test system: UACC257
# UACC62 = test system: UACC62
# WM115 = test system: WM115
# WM1716 = test system: WM1716
# WM1745 = test system: WM1745
# WM3526 = test system: WM3526
# WM3619 = test system: WM3619
# WM451Lu = test system: WM451Lu
SMILES,cleaved PARP positive nuclei fraction (MZ2-MEL) [%],cleaved PARP positive nuclei fraction (MeWo) [%],cleaved PARP positive nuclei fraction (RPMI7951) [%],cleaved PARP positive nuclei fraction (RVH-421) [%],cleaved PARP positive nuclei fraction (SkMel28) [%],cleaved PARP positive nuclei fraction (SkMel2) [%],cleaved PARP positive nuclei fraction (SkMel30) [%],cleaved PARP positive nuclei fraction (SkMel5) [%],cleaved PARP positive nuclei fraction (UACC257) [%],cleaved PARP positive nuclei fraction (UACC62) [%],cleaved PARP positive nuclei fraction (WM115) [%],cleaved PARP positive nuclei fraction (WM1716) [%],cleaved PARP positive nuclei fraction (WM1745) [%],cleaved PARP positive nuclei fraction (WM3526) [%],cleaved PARP positive nuclei fraction (WM3619) [%],cleaved PARP positive nuclei fraction (WM451Lu) [%]
"CCCCCCCCCCCCCCCCCCOP(=O)([O-])OC1CC[N+](C)(C)CC1 [Perifosine] + Oc1cc(-c2nc(-c3ccccc3)[nH]c2-c2ccncc2)ccc1Cl [L779450] (first compound 0.4 µM, partner dose 0.2 µM)",41.2,282,379,112,104,177,106,139,102,240,92.9,70.9,104,92.2,123,35.5
"O=C(/C=C/c1cccnc1)NCCCCC1CCN(C(=O)c2ccccc2)CC1 + O=C(O)C(=O)Nc1sc2c(c1C(=O)O)CCNC2 [TCS401] (first compound 0.01 µM, partner dose 1.66667 µM)",332,43.9,92.8,156,108,240,92,175,106,113,75.1,78.5,94.2,149,107,78.6
"COc1cc([C@@H]2c3cc4c(cc3[C@@H](O[C@@H]3O[C@@H]5CO[C@@H](C)O[C@H]5[C@H](O)[C@H]3O)[C@H]3COC(=O)[C@H]23)OCO4)cc(OC)c1O [etoposide] + N#Cc1c(O)c2c(-c3ccc(-c4ccccc4O)cc3)csc2[nH]c1=O [A769662] (first compound 0.02 µM, partner dose 2 µM)",176,101,201,98.7,72.3,104,194,77.2,71.3,39,171,57.9,80.1,78.7,82.4,80.1
"COc1cc([C@@H]2c3cc4c(cc3[C@@H](O[C@@H]3O[C@@H]5CO[C@@H](C)O[C@H]5[C@H](O)[C@H]3O)[C@H]3COC(=O)[C@H]23)OCO4)cc(OC)c1O [etoposide] + CCN(CC)CCCCNc1ncc2cc(-c3cc(OC)cc(OC)c3)c(NC(=O)NC(C)(C)C)nc2n1 [PD173074] (first compound 0.02 µM, partner dose 0.1 µM)",54.6,330,94.7,43.1,35.9,115,81.2,78.3,332,85.2,77.6,74.2,92.9,121,93.3,193
"CCCCCCCCCCCCCCCCCCOP(=O)([O-])OC1CC[N+](C)(C)CC1 [Perifosine] + Cc1cc([N+](=O)[O-])ccc1NS(=O)(=O)c1cc(Cl)ccc1Cl [FH535] (first compound 0.4 µM, partner dose 1 µM)",86.3,51.6,101,88.9,41.2,62.8,74.7,87.1,93,91,99.3,209,105,74.6,109,99.1
"Cc1cn(-c2cc(NC(=O)c3ccc(C)c(Nc4nccc(-c5cccnc5)n4)c3)cc(C(F)(F)F)c2)cn1 [nilotinib] + NCC(=O)Nc1ccc(-n2nc(C(F)(F)F)cc2-c2ccc3c(ccc4ccccc43)c2)cc1 [OSU03012] (first compound 0.2 µM, partner dose 1 µM)",38,225,63.6,51.9,32.1,164,125,87.6,168,54.1,116,97.6,126,93.2,80.2,182
"COc1cc([C@@H]2c3cc4c(cc3[C@@H](O[C@@H]3O[C@@H]5CO[C@@H](C)O[C@H]5[C@H](O)[C@H]3O)[C@H]3COC(=O)[C@H]23)OCO4)cc(OC)c1O [etoposide] + CN(NC(=O)CC(=O)NN(C)C(=S)c1ccccc1)C(=S)c1ccccc1 [STA4783] (first compound 0.02 µM, partner dose 0.006 µM)",94.4,131,123,102,138,53.7,84.7,61.8,93.5,106,122,126,177,26.8,142,
"CC[C@]1(O)C[C@H]2CN(CCc3c([nH]c4ccccc34)[C@@](C(=O)OC)(c3cc4c(cc3OC)N(C=O)[C@H]3[C@@](O)(C(=O)OC)[C@H](OC(C)=O)[C@]5(CC)C=CCN6CC[C@]43[C@@H]65)C2)C1 [vincristine] + CN(C)S(=O)(=O)c1ccc2c(c1)/C(=C/c1cc3c([nH]1)CCCC3)C(=O)N2 [SU6656] (first compound 0.0001 µM, partner dose 0.4 µM)",116,60.7,68.8,47.2,260,131,128,226,1250,305,3070,245,107,120,170,296
"CCCCCCCCCCCCCCCCCCOP(=O)([O-])OC1CC[N+](C)(C)CC1 [Perifosine] + COc1cc2c(Oc3ccc4[nH]c(C)cc4c3F)ncnc2cc1OCCCN1CCCC1 [cediranib] (first compound 0.4 µM, partner dose 0.4 µM)",103,48,242,61.2,133,53.7,66.2,61.1,60.4,68.3,115,53.7,86.7,63,79.4,307
"O=C(/C=C/c1cccnc1)NCCCCC1CCN(C(=O)c2ccccc2)CC1 + COc1cc(N2CCC(N3CCN(C)CC3)CC2)ccc1Nc1ncc(Cl)c(Nc2ccccc2S(=O)(=O)C(C)C)n1 [NVP-TAE684] (first compound 0.01 µM, partner dose 0.08 µM)",442,106,210,259,48.9,568,87.4,170,18.2,80.7,61.5,45,116,94.1,93.5,31
"O=c1[nH]nc(Sc2ncc([N+](=O)[O-])s2)n1-c1ccc2c(c1)OCCO2 + N#Cc1c(O)c2c(-c3ccc(-c4ccccc4O)cc3)csc2[nH]c1=O [A769662] (first compound 0.2 µM, partner dose 2 µM)",22.3,22,187,82.3,63.2,62.1,146,128,63.7,50.1,53.8,37,93.2,82.7,91,60
"CCCCCCCCCCCCCCCCCCOP(=O)([O-])OC1CC[N+](C)(C)CC1 [Perifosine] + CC1(C)NC(=O)N(c2ccc([N+](=O)[O-])c(C(F)(F)F)c2)C1=O [nilutamide] (first compound 0.4 µM, partner dose 1 µM)",115,116,305,92.6,108,92.6,163,167,54.6,407,170,321,66,80.1,111,145
"Cc1ccc(Nc2nccc(N(C)c3ccc4c(C)n(C)nc4c3)n2)cc1S(N)(=O)=O [Pazopanib] + Cn1cc(/C=C2\C(=O)Nc3cccnc32)c2ccccc21 [GW441756] (first compound 0.4 µM, partner dose 0.4 µM)",29.7,122,47.8,99.1,127,42.3,37.7,88.2,76.3,146,68.7,51.7,88.8,78.1,110,36.5
"O=C(/C=C/c1cccnc1)NCCCCC1CCN(C(=O)c2ccccc2)CC1 + CC(C)CCN1c2nc(Nc3cc(F)c(O)c(F)c3)ncc2N(C)C(=O)C1C [BID1870] (first compound 0.01 µM, partner dose 0.2 µM)",373,103,103,76.9,103,577,91.7,74.2,160,160,125,23.8,82.1,98.8,94.1,19.9
"O=C(Nc1cc(C(F)(F)F)cc(C(F)(F)F)c1)c1cc(Cl)ccc1O + O=C(Nc1ccccc1)c1cc([N+](=O)[O-])ccc1Cl [GW9662] (first compound 0.016 µM, partner dose 2 µM)",141,353,62.3,123,220,73.4,44.4,78.7,312,98.2,204,197,89.1,83.8,92.3,145
"Cc1cc(Nc2cc(N3CCN(C)CC3)nc(Sc3ccc(NC(=O)C4CC4)cc3)n2)n[nH]1 [Tozasertib] + O=C(O)C(=O)Nc1sc2c(c1C(=O)O)CCNC2 [TCS401] (first compound 0.006 µM, partner dose 1.66667 µM)",125,87.7,45.6,81.6,161,132,67.6,144,109,182,127,51.5,98,214,91.1,40.8
"O=C(/C=C/c1cccnc1)NCCCCC1CCN(C(=O)c2ccccc2)CC1 + CC1(C)NC(=O)N(c2ccc([N+](=O)[O-])c(C(F)(F)F)c2)C1=O [nilutamide] (first compound 0.01 µM, partner dose 1 µM)",574,43.7,95.8,207,129,429,84.7,38.4,82.1,185,97.5,73.4,97.9,83.6,100,22.8
"Cc1ccc(Nc2nccc(N(C)c3ccc4c(C)n(C)nc4c3)n2)cc1S(N)(=O)=O [Pazopanib] + O=C(Nc1ccccc1)c1cc([N+](=O)[O-])ccc1Cl [GW9662] (first compound 0.4 µM, partner dose 2 µM)",93.8,86.1,141,86.9,147,82,93.3,77.4,183,105,218,56,153,80.8,110,136

# 2 entries from above in a different format:
SMILES	cleaved PARP positive nuclei fraction (MZ2-MEL) [%]	cleaved PARP positive nuclei fraction (MeWo) [%]	cleaved PARP positive nuclei fraction (RPMI7951) [%]	cleaved PARP positive nuclei fraction (RVH-421) [%]	cleaved PARP positive nuclei fraction (SkMel28) [%]	cleaved PARP positive nuclei fraction (SkMel2) [%]	cleaved PARP positive nuclei fraction (SkMel30) [%]	cleaved PARP positive nuclei fraction (SkMel5) [%]	cleaved PARP positive nuclei fraction (UACC257) [%]	cleaved PARP positive nuclei fraction (UACC62) [%]	cleaved PARP positive nuclei fraction (WM115) [%]	cleaved PARP positive nuclei fraction (WM1716) [%]	cleaved PARP positive nuclei fraction (WM1745) [%]	cleaved PARP positive nuclei fraction (WM3526) [%]	cleaved PARP positive nuclei fraction (WM3619) [%]	cleaved PARP positive nuclei fraction (WM451Lu) [%]
CCCCCCCCCCCCCCCCCCOP(=O)([O-])OC1CC[N+](C)(C)CC1 [Perifosine] + Oc1cc(-c2nc(-c3ccccc3)[nH]c2-c2ccncc2)ccc1Cl [L779450] (first compound 0.4 µM, partner dose 0.2 µM)	41.2	282	379	112	104	177	106	139	102	240	92.9	70.9	104	92.2	123	35.5
O=C(/C=C/c1cccnc1)NCCCCC1CCN(C(=O)c2ccccc2)CC1 + O=C(O)C(=O)Nc1sc2c(c1C(=O)O)CCNC2 [TCS401] (first compound 0.01 µM, partner dose 1.66667 µM)	332	43.9	92.8	156	108	240	92	175	106	113	75.1	78.5	94.2	149	107	78.6
